Structures can show the parent of a compound that is named as a salt. The list shows a part of the results. Repeats in this data set agree poorly, so a single value says little.
system: MDA-MB-468; test: phospho-S6 immunofluorescence (DAPI-normalised), per-plate z-score; higher = higher phospho-S6 signal (less pathway suppression); settings: compound 0.1 µM; co-treatment: vehicle; 24 h
Experimental: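 GPCR-targeted compound library (MedChemExpress HY-L006) tested on MDA-MB-468 PTEN-null TNBC cells in 384-well plates at 0.1, 1 or 10 uM, combined with vehicle, GDC0941 450 nM or lapatinib 1 uM, for 24 h. Phospho-S6 (S240/244) immunofluorescence normalised to DAPI and expressed as a per-plate z-score; values are the mean of biological triplicates.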

SMILES	phospho-S6 immunofluorescence (z-score)
CCOC(=O)N[C@@H]1CC[C@@H]2[C@@H](C1)C[C@H]1C(=O)O[C@H](C)[C@H]1[C@H]2/C=C/c1ccc(-c2cccc(F)c2)cn1 [Vorapaxar]	-0.74
CC(C)c1noc(N2CCC(COc3ccc(-c4ccc(S(C)(=O)=O)cc4)nc3)CC2)n1	-0.49
CC(C)NCC(O)COc1ccc(CCOCC2CC2)cc1 (configuration not stated) [Betaxolol (hydrochloride)]	-0.02
CC(C)NC[C@H](O)COc1ccc(CCOCC2CC2)cc1 [Levobetaxolol (hydrochloride)]	-0.2
OC(CCN1CCCCC1)(c1ccccc1)C1CCCCC1 (configuration not stated) [Trihexyphenidyl (hydrochloride)]	0.44
Clc1cccc(COc2cncc(N3CCNCC3)n2)c1	0.51
Cc1c(C(=O)NN2CCCCC2)nn(-c2ccc(Cl)cc2Cl)c1-c1ccc(Cl)cc1 [Rimonabant (Hydrochloride)]	0.21
CCOc1ccccc1OCCN[C@H](C)Cc1ccc(OC)c(S(N)(=O)=O)c1 [Tamsulosin]	-0.67
CN(C)CCOC(C)(c1ccccc1)c1ccccn1 (configuration not stated) [Doxylamine (succinate)]	-0.14
COCCCN1CCC(NC(=O)c2cc(Cl)c(N)c3c2OCC3)CC1 [Prucalopride]	0.31
Nc1nc(CC(=O)Nc2ccc(CCNC[C@H](O)c3ccccc3)cc2)cs1 [Mirabegron]	0.64
CCNC(=O)[C@@H]1CCCN1C(=O)[C@H](CCCNC(=N)N)NC(=O)[C@H](CC(C)C)NC(=O)[C@@H](COC(C)(C)C)NC(=O)[C@H](Cc1ccc(O)cc1)NC(=O)[C@H](CO)NC(=O)[C@H](Cc1c[nH]c2ccccc12)NC(=O)[C@H](Cc1cnc[nH]1)NC(=O)[C@@H]1CCC(=O)N1 [Buserelin (Acetate)]	-0.12

From the supplement of paper PMC7411640
